PubChem BioAssay AID1053208 | Peter MacCallum Cancer Centre | 2014

Purpose: 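Synthetic lethal interactions between gene loss and doxorubicin in osteosarcoma cells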 (primary screen)
Cells: mouse osteosarcoma cells, early-passage culture from an engineered mouse model of fibroblastic bone tumour
Knock-down reagent: siRNA pool against mouse genes, 40 nM
Duration: about 120 h (48 h before drug, then 72 h with drug)
Conditions: doxorubicin 100 nM for 72 h, roughly 30-40% inhibitory dose
Measured: 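Luminescent ATP signal taken as viability with or without 100 nM doxorubicin for 72 h; mean of two wells set against non-targeting siRNA and turned into robust z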
Direction: viability z-score with doxorubicin and doxorubicin viability vs non-targeting: higher = more viable cells under doxorubicin; viability z-score without drug: higher = more viable cells with knock-down alone; z-score of drug to no-drug ratio: higher = less drug sensitisation by knock-down
Active means: 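Called active if knock-down leaves viability unchanged without drug (z within -2 to 2) but lowers it with doxorubicin (z at or under -2)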
In all, the deposit lists about 17,000 reagents; below is an unselected part. In the full data, 788 (4.7%) are marked active. 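Calls rest on z-score classes alone; an extra cut-off of viability at most 70% of control was not applied to them.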 Unmarked entries are inactive.

The opening 2 entries, to show the layout:
no.	Gene	combined z-score class	viability z-score with doxorubicin	viability z-score without drug	z-score of drug to no-drug ratio	doxorubicin viability vs non-targeting
1	Hoxa11	no change with or without drug	0	-0.84	0.67	0.94
2	Zfp27	no change with or without drug	-0.22	1.52	-1.12	0.92

The listing, from the start:
no.	Gene	combined z-score class	viability z-score with doxorubicin	viability z-score without drug	z-score of drug to no-drug ratio	doxorubicin viability vs non-targeting
1	Hoxa11	no change with or without drug	0	-0.84	0.67	0.94
2	Zfp27	no change with or without drug	-0.22	1.52	-1.12	0.92
3	Xpo4	no change with or without drug	0.45	-0.67	1.12	0.98
4	Anapc13	no change with or without drug	-0.79	-0.84	-0.11	0.87
5	H2al2a	high cell count without drug only	0.56	2.53	-0.9	0.99
6	Slc39a6	no change with or without drug	0.22	-0.17	0.45	0.96
7	Gfra3	no change with or without drug	-1.8	-0.17	-1.69	0.78
8	Xxylt1	no change with or without drug	1.35	-1.01	2.36	1.06
9	Adam29	no change with or without drug	-1.01	-1.01	-0.22	0.85
10	Sdsl	no change with or without drug	-1.46	-0.84	-0.9	0.81
11	Gpr35	no change with or without drug	-0.34	-0.17	-0.11	0.91
12	Serpina3k	no change with or without drug	0.67	0.67	0.34	1
13	Magea7-ps	no change with or without drug	-1.8	-1.18	-1.01	0.78
14	Bex1	low cell count with doxorubicin only (active)	-2.25	-0.84	-1.8	0.74
15	Ifi44	no change with or without drug	-0.9	-1.52	0.22	0.86
16	Tnfsf13b	no change with or without drug	-0.34	-0.17	-0.11	0.91
17	Oxnad1	no change with or without drug	0	-0.17	0.22	0.94
18	Rpl8	low cell count with and without drug	-7.19	-8.09	-3.82	0.3
19	Ambp	no change with or without drug	-0.56	-0.84	0.11	0.89
20	Tarbp2	no change with or without drug	0.34	0.51	0.11	0.97
